Measured data: PubChem BioAssay AID1508588 (Peter MacCallum Cancer Centre, 2020)
Assay: 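Knock-downs boosting vemurafenib effects on melanoma cell growth or lactate release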 (primary screen). System: human WM266.4 melanoma cells (BRAF V600 mutant). Knock-down reagent: siRNA pool against human genes, 40 nM. Time to read-out: 96 h from transfection to read-out. Conditions: vemurafenib 300 nM (about IC25), added 48 h after transfection, for 48 h; comparison arm got DMSO vehicle only. Measured: 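Cell gain (DAPI nuclei at end minus before drug, mean of two replicates) and medium lactate by absorbance per cell, both as ratio to non-targeting siRNA, also grouped into fold-change classes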. Reading the numbers: cell gain with vemurafenib: higher = more cell gain than with non-targeting siRNA; lactate per cell with vemurafenib: higher = more lactate made per cell. Call rule: 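Enhancement is called by pairing each knock-down's vehicle-arm and drug-arm fold-change classes for viability or glycolysis; which class combinations qualify is not given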. Calls: active = enhances vemurafenib effect; inactive = no enhancement seen.
The deposit covers about 18,000 reagents; shown is an unselected part. Over the whole deposit, 790 (4.4%) got an active call. 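Calls rest on a combination of fold-change classes in drug and vehicle arms, not all shown here.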

{"gene knocked down": "LRRTM2", "cell gain with vemurafenib": 0.85, "lactate per cell with vemurafenib": 0.44, "outcome": "active"}
{"gene knocked down": "CNGA3", "cell gain with vemurafenib": 0.14, "lactate per cell with vemurafenib": 1.09, "outcome": "inactive"}
{"gene knocked down": "PLA2G2E", "cell gain with vemurafenib": 0.36, "lactate per cell with vemurafenib": 0.5, "outcome": "inactive"}
{"gene knocked down": "ADAMTS6", "cell gain with vemurafenib": 0.58, "lactate per cell with vemurafenib": 1.06, "outcome": "inactive"}
{"gene knocked down": "SULT1C2", "cell gain with vemurafenib": 0.34, "lactate per cell with vemurafenib": 1.06, "outcome": "inactive"}
{"gene knocked down": "PLCL1", "cell gain with vemurafenib": 0.65, "lactate per cell with vemurafenib": 1.08, "outcome": "inactive"}
{"gene knocked down": "GET3", "cell gain with vemurafenib": 0.88, "lactate per cell with vemurafenib": 1.19, "outcome": "inactive"}
{"gene knocked down": "TMT1A", "cell gain with vemurafenib": 0.9, "lactate per cell with vemurafenib": 1.27, "outcome": "inactive"}
{"gene knocked down": "KLHL8", "cell gain with vemurafenib": 0.99, "lactate per cell with vemurafenib": 1.23, "outcome": "inactive"}
{"gene knocked down": "TMEM50B", "cell gain with vemurafenib": 0.86, "lactate per cell with vemurafenib": 0.68, "outcome": "inactive"}
{"gene knocked down": "DEFB119", "cell gain with vemurafenib": 0.52, "lactate per cell with vemurafenib": 0.54, "outcome": "inactive"}
{"gene knocked down": "TCEA1", "cell gain with vemurafenib": 0.65, "lactate per cell with vemurafenib": 0.57, "outcome": "inactive"}
{"gene knocked down": "DAZ1", "cell gain with vemurafenib": 0.53, "lactate per cell with vemurafenib": 0.7, "outcome": "inactive"}
{"gene knocked down": "CTDNEP1", "cell gain with vemurafenib": 0.73, "lactate per cell with vemurafenib": 1.24, "outcome": "inactive"}
{"gene knocked down": "KRTAP10-11", "cell gain with vemurafenib": 0.79, "lactate per cell with vemurafenib": 0.56, "outcome": "inactive"}
{"gene knocked down": "HMGB1P1", "cell gain with vemurafenib": 0.45, "lactate per cell with vemurafenib": 1.08, "outcome": "inactive"}
{"gene knocked down": "SLC22A24", "cell gain with vemurafenib": 0.15, "lactate per cell with vemurafenib": 1.48, "outcome": "inactive"}
{"gene knocked down": "DMRTC1", "cell gain with vemurafenib": 0.16, "lactate per cell with vemurafenib": 3.32, "outcome": "inactive"}
{"gene knocked down": "DNASE1L3", "cell gain with vemurafenib": 0.66, "lactate per cell with vemurafenib": 0.82, "outcome": "inactive"}
{"gene knocked down": "EOGT", "cell gain with vemurafenib": 0.39, "lactate per cell with vemurafenib": 0.77, "outcome": "inactive"}
{"gene knocked down": "ARRDC2", "cell gain with vemurafenib": 0.27, "lactate per cell with vemurafenib": 2.33, "outcome": "inactive"}
{"gene knocked down": "PLSCR3", "cell gain with vemurafenib": 0.76, "lactate per cell with vemurafenib": 0.96, "outcome": "inactive"}
{"gene knocked down": "CASK", "cell gain with vemurafenib": 0.47, "lactate per cell with vemurafenib": 0.86, "outcome": "inactive"}
{"gene knocked down": "TSPAN13", "cell gain with vemurafenib": 1.21, "lactate per cell with vemurafenib": 0.59, "outcome": "inactive"}
{"gene knocked down": "SRSF6", "cell gain with vemurafenib": 0.49, "lactate per cell with vemurafenib": 1.34, "outcome": "inactive"}
{"gene knocked down": "OXGR1", "cell gain with vemurafenib": 0.63, "lactate per cell with vemurafenib": 0.9, "outcome": "inactive"}
{"gene knocked down": "NFIB", "cell gain with vemurafenib": 0.69, "lactate per cell with vemurafenib": 0.43, "outcome": "inactive"}
{"gene knocked down": "AEBP2", "cell gain with vemurafenib": 0.7, "lactate per cell with vemurafenib": 0.83, "outcome": "inactive"}
{"gene knocked down": "RGPD5", "cell gain with vemurafenib": 0.43, "lactate per cell with vemurafenib": 1.9, "outcome": "inactive"}
{"gene knocked down": "DPM2", "cell gain with vemurafenib": 0.41, "lactate per cell with vemurafenib": 0.52, "outcome": "inactive"}
{"gene knocked down": "DTYMK", "cell gain with vemurafenib": 0.76, "lactate per cell with vemurafenib": 1.16, "outcome": "inactive"}
{"gene knocked down": "HSPH1", "cell gain with vemurafenib": 0.43, "lactate per cell with vemurafenib": 1.78, "outcome": "inactive"}
{"gene knocked down": "RPUSD2", "cell gain with vemurafenib": 0.93, "lactate per cell with vemurafenib": 0.7, "outcome": "active"}
{"gene knocked down": "MAGEA5P", "cell gain with vemurafenib": 0.63, "lactate per cell with vemurafenib": 0.8, "outcome": "inactive"}
{"gene knocked down": "LRRN1", "cell gain with vemurafenib": 0.42, "lactate per cell with vemurafenib": 0.5, "outcome": "inactive"}
{"gene knocked down": "S1PR2", "cell gain with vemurafenib": 0.38, "lactate per cell with vemurafenib": 1.12, "outcome": "inactive"}
{"gene knocked down": "CYB5R2", "cell gain with vemurafenib": 1.09, "lactate per cell with vemurafenib": 0.61, "outcome": "inactive"}
{"gene knocked down": "AFMID", "cell gain with vemurafenib": 0.31, "lactate per cell with vemurafenib": 0.74, "outcome": "inactive"}
{"gene knocked down": "HSD3B2", "cell gain with vemurafenib": 1.1, "lactate per cell with vemurafenib": 0.6, "outcome": "inactive"}
{"gene knocked down": "SYT14P1", "cell gain with vemurafenib": 0.57, "lactate per cell with vemurafenib": 0.81, "outcome": "inactive"}

5 entries from above, set out differently:
gene knocked down,cell gain with vemurafenib,lactate per cell with vemurafenib,outcome
AEBP2,0.7,0.83,inactive
RGPD5,0.43,1.9,inactive
DPM2,0.41,0.52,inactive
DTYMK,0.76,1.16,inactive
HSPH1,0.43,1.78,inactive
